Source: publication PMC9692554
These are yes or no findings as the source states them, for the method shown. For some assays here: A result given as binding can be weak or reduced; the word gives no strength. Sequences can lack the tags named with a protein.

How the values were obtained:
[1] = target: pMarR double mutant R67A_S66A (cyanophage P-SSP7); experiment: two-hybrid; GAL4 AD and BD fusions (tag at N or C terminus), S. cerevisiae YH109; three co-transformants spotted in serial dilutions on CSM -trp -leu -his with 5 mM 3-AT, 30 °C
[2] = target: pMarR double mutant R67A_G106A (cyanophage P-SSP7); experiment: as above

binding [1]: binds | binding [2]: no binding
B1: rpoA (PMM1535), α subunit of the RNAP, yeast two-hybrid fusion (protein, UniProt Q7UZW6 1-312)
chain: MLQYQIDRIDHQISDDRSQTGTFLIGPLERGQATTLGNSLRRVLMGGLEGSAVTAVRISGINHEYATIPGVREDVLDILLNCKQLSINSSNPETEIGRLVVNGPMEVKANDIQFSSQVEIVDGEKPIATIQEGHNLELEIHVERGVGYRPVDRRNQETTAIDLLQIDAVFMPVKRVNFTIDETAVAEGATGRERLTMEVVTDGSTSPDDAIAEAANQLIELFQPLATVTMVEEIPEEPEPSPEAQIPLEELNLSVRAYNCLKRAQVNSVSDLMGFSYEDLLEIKNFGSKSADEVIEALERIGISIPQSRTSV
